Measured values taken from PMC6329795.
These are yes or no findings as the source states them, for the method shown. In cells and extracts the contact can be indirect. Binding calls can cover weak binding; strength is not graded here.

Biological target: kinetoplast polyadenylation factor 4 (KPAF4) (Trypanosoma brucei)
Assay: co-IP; tandem affinity purification of KPAF4-TAP from mitochondrial extract (mock and RNase I-treated; parental 29-13 line as control); final fractions immunoblotted, REL1/REL2 detected by self-adenylation with [alpha-32P]ATP

binding: binds
B1: REL1 RNA ligase (RNA editing core complex, RECC) (enzyme, UniProt P86927 45-469)
chain: YMPLPNDQSDFSPYIEIDLPSESRIQSLHKSGLAAQEWVACEKVHGTNFGIYLINQGDHEVVRFAKRSGIMDPNENFFGYHILIDEFTAQIRILNDLLKQKYGLSRVGRLVLNGELFGAKYKHPLVPKSEKWCTLPNGKKFPIAGVQIQREPFPQYSPELHFFAFDIKYSVSGAEEDFVLLGYDEFVEFSSKVPNLLYARALVRGTLDECLAFDVENFMTPLPALLGLGNYPLEGNLAEGVVIRHVRRGDPAVEKHNVSTIIKLRCSSFMELKHPGKQKELKETFIDTVRSGALRRVRGNVTVISDSMLPQVEAAANDLLLNNVSDGRLSNVLSKIGREPLLSGEVSQVDVALMLAKDALKDFLKEVDSLVLNTTLAFRKLLITNVYFESKRLVEQKWKELMQEEAAAQSEAIPPLSPAAPTKGE
